Source: the supplement of paper PMC10849652
The list shows a part of the results. Residues, ends and D or L forms follow the SMILES beside them. *: point of attachment. Cbz = O=C(OCc1ccccc1)*

The chains behind the UniProt entries cited, without tags or fusion partners. Where a name states a change or a piece, a line headed by the entry shows the natural chain unless it says otherwise.
UniProt O60239: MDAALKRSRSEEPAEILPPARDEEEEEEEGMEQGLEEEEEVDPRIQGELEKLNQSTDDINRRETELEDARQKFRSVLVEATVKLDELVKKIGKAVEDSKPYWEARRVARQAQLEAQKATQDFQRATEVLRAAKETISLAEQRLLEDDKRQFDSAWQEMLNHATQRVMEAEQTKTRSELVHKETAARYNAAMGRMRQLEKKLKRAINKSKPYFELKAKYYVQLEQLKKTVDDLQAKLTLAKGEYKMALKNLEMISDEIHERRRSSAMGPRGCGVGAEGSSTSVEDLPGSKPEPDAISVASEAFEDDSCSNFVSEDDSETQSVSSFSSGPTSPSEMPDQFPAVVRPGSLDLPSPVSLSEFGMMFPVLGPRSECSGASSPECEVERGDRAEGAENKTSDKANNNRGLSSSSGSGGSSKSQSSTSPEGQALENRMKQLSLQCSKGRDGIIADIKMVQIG
UniProt P61619, whole entry, looked up: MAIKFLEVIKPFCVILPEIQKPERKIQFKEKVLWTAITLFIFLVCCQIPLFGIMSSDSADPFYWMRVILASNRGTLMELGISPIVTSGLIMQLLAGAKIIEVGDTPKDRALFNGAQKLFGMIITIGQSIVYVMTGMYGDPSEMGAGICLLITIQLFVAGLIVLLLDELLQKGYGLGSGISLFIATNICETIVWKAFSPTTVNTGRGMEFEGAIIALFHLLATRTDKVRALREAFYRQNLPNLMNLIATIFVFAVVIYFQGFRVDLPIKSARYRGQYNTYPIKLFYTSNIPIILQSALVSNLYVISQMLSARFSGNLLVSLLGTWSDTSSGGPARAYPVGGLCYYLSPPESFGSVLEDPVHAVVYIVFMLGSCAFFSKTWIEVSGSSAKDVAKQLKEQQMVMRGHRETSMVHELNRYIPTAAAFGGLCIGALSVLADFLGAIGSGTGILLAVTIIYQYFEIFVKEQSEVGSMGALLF
UniProt P34897: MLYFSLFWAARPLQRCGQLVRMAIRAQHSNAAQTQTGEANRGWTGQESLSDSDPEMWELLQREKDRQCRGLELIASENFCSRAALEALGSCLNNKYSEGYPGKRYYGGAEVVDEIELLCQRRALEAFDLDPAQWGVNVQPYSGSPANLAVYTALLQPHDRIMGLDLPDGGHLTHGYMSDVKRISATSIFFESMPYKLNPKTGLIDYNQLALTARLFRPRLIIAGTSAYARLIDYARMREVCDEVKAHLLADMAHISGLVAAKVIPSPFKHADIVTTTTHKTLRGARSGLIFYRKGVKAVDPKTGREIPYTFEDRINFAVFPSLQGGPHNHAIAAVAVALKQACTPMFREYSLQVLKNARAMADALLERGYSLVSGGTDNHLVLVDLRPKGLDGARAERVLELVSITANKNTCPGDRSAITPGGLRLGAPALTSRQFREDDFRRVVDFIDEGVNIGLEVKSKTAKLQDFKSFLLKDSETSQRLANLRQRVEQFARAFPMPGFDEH
UniProt Q9H9B4: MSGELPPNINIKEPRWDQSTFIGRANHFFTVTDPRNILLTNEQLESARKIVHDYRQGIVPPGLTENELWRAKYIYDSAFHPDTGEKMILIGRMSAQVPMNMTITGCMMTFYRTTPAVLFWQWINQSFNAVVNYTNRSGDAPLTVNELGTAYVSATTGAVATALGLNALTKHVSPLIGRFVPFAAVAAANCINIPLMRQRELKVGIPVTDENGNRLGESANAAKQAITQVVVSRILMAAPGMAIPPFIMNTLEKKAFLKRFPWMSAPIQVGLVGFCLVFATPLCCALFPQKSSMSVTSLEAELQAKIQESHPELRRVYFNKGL
UniProt P50453: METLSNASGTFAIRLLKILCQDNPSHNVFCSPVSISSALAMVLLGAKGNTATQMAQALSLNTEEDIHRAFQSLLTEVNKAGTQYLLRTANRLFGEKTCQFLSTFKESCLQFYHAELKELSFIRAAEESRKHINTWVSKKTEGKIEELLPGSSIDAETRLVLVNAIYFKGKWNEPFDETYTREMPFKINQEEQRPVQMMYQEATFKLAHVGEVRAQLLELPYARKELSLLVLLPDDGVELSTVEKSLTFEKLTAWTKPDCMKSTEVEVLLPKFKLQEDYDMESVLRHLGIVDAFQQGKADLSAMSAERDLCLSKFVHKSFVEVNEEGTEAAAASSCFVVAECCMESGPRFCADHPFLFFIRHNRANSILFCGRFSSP
UniProt A0MZ66, whole entry, looked up: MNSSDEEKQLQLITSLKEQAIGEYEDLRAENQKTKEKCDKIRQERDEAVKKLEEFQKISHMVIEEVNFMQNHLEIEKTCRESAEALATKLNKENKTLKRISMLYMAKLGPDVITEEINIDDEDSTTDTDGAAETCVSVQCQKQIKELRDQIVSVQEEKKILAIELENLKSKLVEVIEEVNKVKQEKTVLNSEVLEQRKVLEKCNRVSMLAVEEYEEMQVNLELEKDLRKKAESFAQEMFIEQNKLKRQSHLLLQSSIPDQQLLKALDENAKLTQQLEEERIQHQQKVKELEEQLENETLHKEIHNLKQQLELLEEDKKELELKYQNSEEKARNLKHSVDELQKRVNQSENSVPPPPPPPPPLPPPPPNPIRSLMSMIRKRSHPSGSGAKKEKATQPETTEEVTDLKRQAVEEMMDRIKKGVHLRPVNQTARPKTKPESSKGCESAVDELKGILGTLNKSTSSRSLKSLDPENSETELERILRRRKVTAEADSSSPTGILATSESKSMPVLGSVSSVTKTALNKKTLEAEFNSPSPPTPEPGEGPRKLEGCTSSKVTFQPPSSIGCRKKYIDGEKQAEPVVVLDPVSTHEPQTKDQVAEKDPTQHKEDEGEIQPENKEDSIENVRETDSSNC
UniProt Q9BRV8: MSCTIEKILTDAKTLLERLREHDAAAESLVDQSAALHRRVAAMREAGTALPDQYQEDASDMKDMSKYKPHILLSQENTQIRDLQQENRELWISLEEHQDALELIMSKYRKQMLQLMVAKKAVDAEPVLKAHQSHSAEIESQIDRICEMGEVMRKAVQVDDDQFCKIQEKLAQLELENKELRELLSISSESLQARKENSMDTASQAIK
UniProt P49903: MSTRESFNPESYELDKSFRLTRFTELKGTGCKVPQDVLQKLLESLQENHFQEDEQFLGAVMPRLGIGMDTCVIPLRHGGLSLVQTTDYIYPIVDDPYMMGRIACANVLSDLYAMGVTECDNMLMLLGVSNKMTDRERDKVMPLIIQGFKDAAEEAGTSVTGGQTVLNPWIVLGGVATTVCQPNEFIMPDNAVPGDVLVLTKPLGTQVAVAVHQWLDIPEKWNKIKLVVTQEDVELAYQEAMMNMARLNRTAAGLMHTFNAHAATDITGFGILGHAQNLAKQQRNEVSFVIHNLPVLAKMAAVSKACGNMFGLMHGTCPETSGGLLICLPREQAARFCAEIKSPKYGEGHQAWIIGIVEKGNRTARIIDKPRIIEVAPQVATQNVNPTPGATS
UniProt O75533, whole entry, looked up: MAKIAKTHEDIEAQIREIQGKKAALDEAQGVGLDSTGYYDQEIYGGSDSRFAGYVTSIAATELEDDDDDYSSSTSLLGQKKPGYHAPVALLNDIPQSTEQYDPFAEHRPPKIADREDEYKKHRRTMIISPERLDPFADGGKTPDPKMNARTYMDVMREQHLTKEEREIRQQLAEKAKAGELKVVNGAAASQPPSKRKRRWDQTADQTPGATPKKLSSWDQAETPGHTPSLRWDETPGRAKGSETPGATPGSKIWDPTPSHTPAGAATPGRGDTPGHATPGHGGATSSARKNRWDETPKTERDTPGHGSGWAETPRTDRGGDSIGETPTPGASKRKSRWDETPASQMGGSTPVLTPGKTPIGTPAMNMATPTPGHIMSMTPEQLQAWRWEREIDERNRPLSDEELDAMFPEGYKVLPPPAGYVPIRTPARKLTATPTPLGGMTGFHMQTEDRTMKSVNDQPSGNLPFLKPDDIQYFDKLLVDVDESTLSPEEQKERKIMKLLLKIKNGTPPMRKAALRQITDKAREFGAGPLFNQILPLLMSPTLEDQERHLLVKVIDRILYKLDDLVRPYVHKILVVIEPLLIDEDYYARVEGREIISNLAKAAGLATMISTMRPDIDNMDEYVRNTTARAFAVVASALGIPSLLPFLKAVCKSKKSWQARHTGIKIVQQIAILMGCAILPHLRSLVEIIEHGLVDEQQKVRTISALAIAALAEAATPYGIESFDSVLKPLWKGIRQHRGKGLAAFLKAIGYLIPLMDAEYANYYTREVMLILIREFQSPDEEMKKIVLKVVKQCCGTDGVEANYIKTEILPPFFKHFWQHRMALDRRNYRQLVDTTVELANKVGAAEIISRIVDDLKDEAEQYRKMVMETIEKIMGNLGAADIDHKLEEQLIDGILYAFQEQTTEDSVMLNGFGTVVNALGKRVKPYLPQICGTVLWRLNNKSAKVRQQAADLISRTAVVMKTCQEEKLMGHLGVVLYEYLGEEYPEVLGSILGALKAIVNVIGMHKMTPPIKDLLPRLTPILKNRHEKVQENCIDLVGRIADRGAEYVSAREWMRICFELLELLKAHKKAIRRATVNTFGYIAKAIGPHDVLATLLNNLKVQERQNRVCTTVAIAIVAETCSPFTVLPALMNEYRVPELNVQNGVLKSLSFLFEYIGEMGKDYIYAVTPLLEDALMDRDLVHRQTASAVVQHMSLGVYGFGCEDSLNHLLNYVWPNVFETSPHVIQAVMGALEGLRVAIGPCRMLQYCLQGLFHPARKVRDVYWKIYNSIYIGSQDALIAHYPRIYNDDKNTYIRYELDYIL
UniProt Q13228: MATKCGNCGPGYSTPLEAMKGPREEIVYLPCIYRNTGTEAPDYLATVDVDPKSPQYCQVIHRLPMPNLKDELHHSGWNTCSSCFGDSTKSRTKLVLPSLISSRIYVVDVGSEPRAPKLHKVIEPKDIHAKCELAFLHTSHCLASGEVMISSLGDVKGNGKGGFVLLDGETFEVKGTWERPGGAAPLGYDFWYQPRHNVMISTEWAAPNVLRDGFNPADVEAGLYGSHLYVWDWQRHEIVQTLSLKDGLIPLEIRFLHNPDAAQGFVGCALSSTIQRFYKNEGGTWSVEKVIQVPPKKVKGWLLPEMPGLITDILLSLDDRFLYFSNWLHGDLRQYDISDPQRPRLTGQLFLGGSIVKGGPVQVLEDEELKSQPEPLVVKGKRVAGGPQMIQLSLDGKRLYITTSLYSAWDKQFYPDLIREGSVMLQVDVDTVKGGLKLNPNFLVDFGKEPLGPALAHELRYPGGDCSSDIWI
UniProt P60468, whole entry, looked up: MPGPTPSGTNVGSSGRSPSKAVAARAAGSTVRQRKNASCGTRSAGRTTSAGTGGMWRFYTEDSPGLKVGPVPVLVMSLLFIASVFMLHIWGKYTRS
UniProt P31947: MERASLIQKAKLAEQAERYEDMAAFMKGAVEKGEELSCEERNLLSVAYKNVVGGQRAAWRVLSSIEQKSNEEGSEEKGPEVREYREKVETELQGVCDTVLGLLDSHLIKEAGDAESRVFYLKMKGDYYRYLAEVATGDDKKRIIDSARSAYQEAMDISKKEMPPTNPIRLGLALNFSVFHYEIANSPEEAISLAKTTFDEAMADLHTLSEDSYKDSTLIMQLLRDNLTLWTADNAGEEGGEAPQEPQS
UniProt P01008, whole entry, looked up: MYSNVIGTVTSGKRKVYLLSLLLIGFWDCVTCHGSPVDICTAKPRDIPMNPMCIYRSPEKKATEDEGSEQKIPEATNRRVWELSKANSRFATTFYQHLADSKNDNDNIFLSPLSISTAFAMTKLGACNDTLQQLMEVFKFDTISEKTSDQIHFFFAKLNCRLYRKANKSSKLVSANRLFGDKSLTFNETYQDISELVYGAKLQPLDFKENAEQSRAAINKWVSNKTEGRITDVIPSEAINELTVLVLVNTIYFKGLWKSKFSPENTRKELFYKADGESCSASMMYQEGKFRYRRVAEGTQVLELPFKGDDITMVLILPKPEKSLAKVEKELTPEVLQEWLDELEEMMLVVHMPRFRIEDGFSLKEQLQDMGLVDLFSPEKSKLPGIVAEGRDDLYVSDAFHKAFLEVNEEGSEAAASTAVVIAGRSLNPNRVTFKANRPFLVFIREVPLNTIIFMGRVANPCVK
UniProt Q92599: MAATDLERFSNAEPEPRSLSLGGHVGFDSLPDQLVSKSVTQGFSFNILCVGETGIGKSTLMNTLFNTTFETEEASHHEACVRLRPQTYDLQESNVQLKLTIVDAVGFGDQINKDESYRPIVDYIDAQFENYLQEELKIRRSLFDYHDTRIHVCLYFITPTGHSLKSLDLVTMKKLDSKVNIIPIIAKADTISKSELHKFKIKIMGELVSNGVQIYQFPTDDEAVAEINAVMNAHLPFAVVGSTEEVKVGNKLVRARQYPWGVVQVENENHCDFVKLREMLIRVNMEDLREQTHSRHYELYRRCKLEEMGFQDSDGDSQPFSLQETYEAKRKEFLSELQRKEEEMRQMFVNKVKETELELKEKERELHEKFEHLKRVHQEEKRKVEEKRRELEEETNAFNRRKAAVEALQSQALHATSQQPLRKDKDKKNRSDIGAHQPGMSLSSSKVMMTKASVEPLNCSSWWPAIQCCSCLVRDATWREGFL

Legend:
Experiment in all cases: log2 fold change, soluble protein after heating vs DMSO (PISA); higher = thermal stabilisation; K562 cells, 10 uM, 30 min; active = over 0.2 and 3.5 SD of the protein, either way, in both replicates (recomputed)
[1] = compound: C#Cc1cccc(Nc2ncnc3cc(OCCOC)c(OCCOC)cc23)c1 [erlotinib]
Summary of the method: (§1)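 Soluble protein was quantified by TMTpro 16plex LC-MS/MS after channel sums were equalised. It was obtained as the supernatant after 21,000xg for 90 min from pooled aliquots of K562 cells (2×10^6 cells/mL, 10 μM compound, 30 min) heated for 3 min across 48°C-58°C and extracted in PBS with 0.5% NP-40 at 4°C. Thermal stability values are relative to control samples and come from duplicates. They are given as log2 fold changes.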

[2] = compound: C/C(=N\NC(=O)C1=CC(=CC=C1)S(=O)(=O)N2CCOCC2)/C3=C(C=CC(=C3)Cl)O
Summary of the method: as §1

[3] = compound: C1=CC(=C(C=C1Cl)C2=NC3=NC=CN=C3C(=N2)NC4=CC=NC=C4)F
Summary of the method: as §1

[4] = compound: C1=CC(=CC=C1C2=NC3=C(N2)C=C(C=C3)C(=O)N)OC4=CC=C(C=C4)Cl
Summary of the method: as §1

[5] = compound: C1=CC2=C(C=CC(=C2)/C=C\3/C(=O)NC(=NCC4=CC=CS4)S3)N=C1
Summary of the method: as §1

[6] = compound: C1=CC2=NC=CN=C2C=C1/C=C/3\C(=O)NC(=O)S3
Summary of the method: as §1

[7] = compound: C1=CC=C(C=C1)C2=NC(=C(N2)C3=CC=NC=C3)C4=CC(=C(C=C4)Cl)O
Summary of the method: as §1

[8] = compound: C1=CC=C2C(=C1)C3=NNC4=CC=CC(=C43)C2=O
Summary of the method: as §1

[9] = compound: C1CCN(C1)C(=O)NC2=CC=CC(=C2)NC3=NC=C(C(=N3)NCCC4=CN=CN4)Br
Summary of the method: as §1

[10] = compound: C1CN(CCC1(CC2=CC=C(C=C2)Cl)N)C3=NC=NC4=C3C=CN4
Summary of the method: as §1

[11] = compound: C1COCCN1CCN2C3=CC=CC=C3N=C2NC(=O)C4=CC(=CC=C4)[N+](=O)[O-] [IRAK-1-4 Inhibitor I]
Summary of the method: as §1

[12] = compound: C=CC(=O)N1CCC[C@@H](n2nc(-c3ccc(Oc4ccccc4)cc3)c3c(N)ncnc32)C1 [ibrutinib]
Summary of the method: as §1

[13] = compound: CC(=O)c1cnc2ccc(-c3cc(Cl)c(O)c(Cl)c3)nc2c1N[C@H]1CC[C@H](CN(C)C)CC1
Summary of the method: as §1

[14] = compound: CC(C)(C)Cn1c(N)nc2ccc(-c3[nH]c(C(C)(C)C)nc3-c3ccc(F)cc3)nc21 [ralimetinib]
Summary of the method: as §1

[15] = compound: CC(C)(O)CC(=O)NCCn1ccc2ncnc(Nc3ccc(Oc4cccc(C(F)(F)F)c4)c(Cl)c3)c21
Summary of the method: as §1

[16] = compound: CC(C)C1=C2N=C(C=C(N2N=C1)NCC3=CC=CC=C3)NCCCCCCN
Summary of the method: as §1

[17] = compound: CC(C)C[C@@H](C=O)NC(=O)[C@H](CC(C)C)NC(=O)[C@H](CC(C)C)NC(=O)OCc1ccccc1
Summary of the method: as §1

[18] = compound: CC(C)N(C[C@H]1O[C@@H](n2cnc3c(N)ncnc32)[C@H](O)[C@@H]1O)[C@H]1C[C@@H](CCc2nc3cc(C(C)(C)C)ccc3[nH]2)C1 [pinometostat]
Summary of the method: as §1

[19] = compound: CC1=C(C(CC(=O)N1)C2=CC=C(C=C2)C(F)(F)F)C(=O)NC3=C(C=C4C(=C3)C=NN4)F
Summary of the method: as §1

[20] = compound: CC1=C(C2=C(C=C1)C(=O)C3=CC=CC=C3N2CCCN)C
Summary of the method: as §1

Measured: log2 fold change

SH3BP5 (UniProt O60239)
inactive: [1] -0.032 | [2] 0 | [3] 0.083 | [4] -0.045 | [5] 0.052 | [6] 0.108 | [7] -0.031 | [8] -0.088 | [9] -0.005 | [10] 0.096 | [11] -0.043 | [12] -0.017 | [13] -0.046 | [14] -0.039 | [15] -0.032 | [16] -0.086 | [17] 0.068 | [18] -0.013 | [19] -0.017 | [20] -0.083

SEC61A1 (UniProt P61619)
inactive: [1] -0.043 | [2] -0.014 | [3] -0.049 | [4] -0.006 | [5] 0.037 | [6] 0.023 | [7] 0.033 | [8] -0.033 | [9] 0.024 | [10] 0.069 | [11] 0.063 | [12] 0.072 | [13] 0.031 | [14] -0.077 | [15] 0.02 | [16] 0.047 | [17] -0.025 | [18] -0.017 | [19] 0.036 | [20] 0.024

SHMT2 (UniProt P34897)
inactive: [1] -0.002 | [2] 0.001 | [3] 0 | [4] -0.005 | [5] 0.016 | [6] 0.009 | [7] -0.038 | [8] -0.013 | [9] 0.02 | [10] 0.034 | [11] 0.024 | [12] 0.012 | [13] 0.006 | [14] -0.051 | [15] 0.008 | [16] 0.026 | [17] -0.021 | [18] -0.037 | [19] -0.005 | [20] -0.002

SFXN1 (UniProt Q9H9B4)
inactive: [1] 0.017 | [2] 0.042 | [3] 0.095 | [4] -0.022 | [5] 0.003 | [6] 0.047 | [7] 0.064 | [8] -0.007 | [9] -0.038 | [10] 0.017 | [11] 0.036 | [12] 0.033 | [13] -0.003 | [14] 0.021 | [15] -0.111 | [16] -0.12 | [17] -0.068 | [18] -0.099 | [19] -0.003 | [20] 0.056

SERPINB9 (UniProt P50453)
inactive: [1] -0.025 | [2] 0.027 | [3] 0.072 | [4] 0.026 | [5] -0.02 | [6] -0.021 | [7] 0.037 | [8] 0.005 | [9] -0.01 | [10] 0.052 | [11] 0.033 | [12] 0.02 | [13] 0.01 | [14] -0.02 | [15] -0.029 | [16] 0.072 | [17] -0.021 | [18] -0.033 | [19] -0.03 | [20] 0.019

SHTN1 isoform 3 (UniProt A0MZ66)
inactive: [1] 0.01 | [2] 0.021 | [3] -0.041 | [4] -0.074 | [5] 0.033 | [6] 0.053 | [7] 0.011 | [8] 0.001 | [9] -0.036 | [10] -0.043 | [11] -0.069 | [12] -0.042 | [13] 0.041 | [14] 0.111 | [15] -0.032 | [16] -0.063 | [17] 0.034 | [18] 0.034 | [19] -0.015 | [20] -0.021

SIKE1 (UniProt Q9BRV8)
inactive: [1] 0.052 | [2] -0.056 | [3] 0.069 | [4] -0.015 | [5] -0.001 | [6] -0.021 | [7] 0.02 | [8] -0.016 | [9] -0.041 | [10] -0.069 | [11] -0.033 | [12] 0.017 | [13] 0.044 | [14] 0.005 | [15] 0.005 | [16] 0.034 | [17] 0.081 | [18] 0.028 | [19] 0.067 | [20] -0.005

SGTB (UniProt Q96EQ0)
inactive: [1] -0.001 | [2] 0.049 | [3] 0.027 | [4] 0.01 | [5] 0.04 | [6] 0.092 | [7] -0.015 | [8] -0.017 | [9] -0.014 | [10] -0.02 | [11] 0.052 | [12] 0.014 | [13] -0.017 | [14] -0.051 | [15] 0.029 | [16] -0.002 | [17] -0.014 | [18] -0.015 | [19] -0.02 | [20] 0.013

SEPHS1 (UniProt P49903)
inactive: [1] -0.035 | [2] 0.01 | [3] 0.092 | [4] 0 | [5] -0.005 | [6] 0.007 | [7] 0.004 | [8] 0.024 | [9] -0.041 | [10] 0.037 | [11] 0.021 | [12] 0.005 | [13] -0.032 | [14] -0.009 | [15] -0.041 | [16] 0.038 | [17] -0.008 | [18] -0.028 | [19] 0.022 | [20] 0.026

SF3B1 (UniProt O75533)
inactive: [1] 0.006 | [2] 0.066 | [3] -0.06 | [4] 0.007 | [5] 0.023 | [6] 0.009 | [7] 0.008 | [8] -0.019 | [9] -0.013 | [10] -0.058 | [11] -0.036 | [12] -0.004 | [13] -0.062 | [14] 0.023 | [15] -0.045 | [16] -0.185 | [17] 0.028 | [18] 0.052 | [19] -0.01 | [20] -0.074

SLAIN2 (UniProt Q9P270)
inactive: [1] 0.037 | [2] -0.006 | [3] -0.012 | [4] -0.02 | [5] 0.046 | [6] 0.095 | [7] 0.016 | [8] -0.08 | [9] -0.02 | [10] -0.047 | [11] -0.052 | [12] 0.003 | [13] -0.128 | [14] 0.029 | [15] 0.006 | [16] 0.017 | [17] 0.065 | [18] -0.012 | [19] 0.069 | [20] -0.006

SELENBP1 isoform 4 (UniProt Q13228)
inactive: [1] -0.01 | [2] -0.033 | [3] 0.026 | [4] 0.035 | [5] -0.058 | [6] -0.014 | [7] 0.046 | [8] -0.019 | [9] 0.017 | [10] 0.057 | [11] 0.005 | [12] 0.013 | [13] 0.01 | [14] -0.004 | [15] -0.01 | [16] 0.056 | [17] -0.02 | [18] -0.06 | [19] -0.018 | [20] -0.015

SEC61B (UniProt P60468)
inactive: [1] -0.039 | [2] -0.095 | [3] 0.028 | [4] -0.086 | [5] -0.056 | [6] 0.059 | [7] -0.016 | [8] -0.051 | [9] 0.064 | [10] -0.004 | [11] 0.013 | [12] 0 | [13] 0.031 | [14] -0.132 | [15] 0.069 | [16] 0.001 | [17] -0.039 | [18] -0.051 | [19] 0 | [20] -0.06

SFN (UniProt P31947)
inactive: [1] 0.004 | [2] 0.034 | [3] 0.047 | [4] -0.044 | [5] 0.017 | [6] -0.032 | [7] -0.033 | [8] 0.006 | [9] 0.024 | [10] 0.01 | [11] 0.067 | [12] -0.037 | [13] -0.008 | [14] -0.077 | [15] -0.015 | [16] 0.033 | [17] -0.027 | [18] -0.049 | [19] 0.003 | [20] 0.011

SERPINC1 (UniProt P01008)
inactive: [1] -0.2 | [2] -0.075 | [3] -0.04 | [4] 0.166 | [5] 0.18 | [6] -0.091 | [7] -0.027 | [8] -0.075 | [9] 0.231 | [10] 0.318 | [11] 0.089 | [12] 0.284 | [13] 0.039 | [14] 0.02 | [15] 0.268 | [16] 0.111 | [17] 0.091 | [18] -0.059 | [19] 0.026 | [20] -0.359

SEPTIN8 (UniProt Q92599)
inactive: [1] -0.012 | [2] 0.036 | [3] 0.037 | [4] -0.014 | [5] 0.001 | [6] -0.01 | [7] 0.02 | [8] 0.022 | [9] 0.005 | [10] 0.03 | [11] 0.039 | [12] 0.003 | [13] -0.034 | [14] -0.066 | [15] -0.007 | [16] 0.034 | [17] 0 | [18] -0.025 | [19] -0.004 | [20] -0.007

Reprinted at random: 2 entries already listed, in no set order.
SEC61B (UniProt P60468)
inactive: [1] -0.039 | [2] -0.095 | [3] 0.028 | [4] -0.086 | [5] -0.056 | [6] 0.059 | [7] -0.016 | [8] -0.051 | [9] 0.064 | [10] -0.004 | [11] 0.013 | [12] 0 | [13] 0.031 | [14] -0.132 | [15] 0.069 | [16] 0.001 | [17] -0.039 | [18] -0.051 | [19] 0 | [20] -0.06

SELENBP1 isoform 4 (UniProt Q13228)
inactive: [1] -0.01 | [2] -0.033 | [3] 0.026 | [4] 0.035 | [5] -0.058 | [6] -0.014 | [7] 0.046 | [8] -0.019 | [9] 0.017 | [10] 0.057 | [11] 0.005 | [12] 0.013 | [13] 0.01 | [14] -0.004 | [15] -0.01 | [16] 0.056 | [17] -0.02 | [18] -0.06 | [19] -0.018 | [20] -0.015
